Results on 23 targets are retold here after the supplement of paper PMC11006884.

Protein sequences, listed by entry. Tags and fused reporters are not part of them. Lines headed by an entry give the natural chain unless they say otherwise; changes in a name come on top.
UniProt P62318, whole entry: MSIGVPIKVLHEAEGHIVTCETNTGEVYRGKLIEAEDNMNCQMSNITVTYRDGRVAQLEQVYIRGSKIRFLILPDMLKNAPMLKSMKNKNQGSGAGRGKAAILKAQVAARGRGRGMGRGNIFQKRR
UniProt Q01813: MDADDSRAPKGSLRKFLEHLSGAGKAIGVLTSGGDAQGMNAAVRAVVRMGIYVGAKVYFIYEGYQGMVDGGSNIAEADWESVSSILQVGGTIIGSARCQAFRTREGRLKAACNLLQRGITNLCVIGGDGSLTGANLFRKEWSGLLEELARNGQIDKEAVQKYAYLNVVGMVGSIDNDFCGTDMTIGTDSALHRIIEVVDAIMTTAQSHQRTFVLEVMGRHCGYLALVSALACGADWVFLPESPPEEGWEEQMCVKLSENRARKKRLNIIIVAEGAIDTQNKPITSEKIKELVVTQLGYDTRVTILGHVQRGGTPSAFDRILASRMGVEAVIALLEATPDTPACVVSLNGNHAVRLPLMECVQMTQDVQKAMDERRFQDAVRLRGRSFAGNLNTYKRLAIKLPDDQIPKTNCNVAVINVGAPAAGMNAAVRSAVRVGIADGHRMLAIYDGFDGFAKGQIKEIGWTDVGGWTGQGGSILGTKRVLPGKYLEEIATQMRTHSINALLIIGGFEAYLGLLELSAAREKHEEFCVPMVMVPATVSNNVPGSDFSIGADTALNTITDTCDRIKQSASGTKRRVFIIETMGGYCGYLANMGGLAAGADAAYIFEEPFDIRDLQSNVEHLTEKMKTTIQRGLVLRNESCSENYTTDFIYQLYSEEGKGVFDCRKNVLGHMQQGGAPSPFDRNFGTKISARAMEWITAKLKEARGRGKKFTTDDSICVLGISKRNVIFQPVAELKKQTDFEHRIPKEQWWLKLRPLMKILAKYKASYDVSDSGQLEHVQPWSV
UniProt P68363, whole entry, looked up: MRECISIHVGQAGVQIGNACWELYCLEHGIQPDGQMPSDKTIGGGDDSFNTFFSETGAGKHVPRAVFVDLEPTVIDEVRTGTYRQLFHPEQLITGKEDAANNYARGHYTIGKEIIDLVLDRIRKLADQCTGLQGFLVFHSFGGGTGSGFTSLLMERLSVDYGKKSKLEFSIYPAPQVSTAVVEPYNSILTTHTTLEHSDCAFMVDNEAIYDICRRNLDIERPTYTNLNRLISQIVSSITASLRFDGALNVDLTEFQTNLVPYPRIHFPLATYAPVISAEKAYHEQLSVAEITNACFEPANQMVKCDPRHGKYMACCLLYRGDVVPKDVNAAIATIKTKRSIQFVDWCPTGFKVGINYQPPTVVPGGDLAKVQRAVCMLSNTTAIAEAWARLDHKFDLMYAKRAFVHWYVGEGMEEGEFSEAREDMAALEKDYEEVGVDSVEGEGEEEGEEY
UniProt P78371: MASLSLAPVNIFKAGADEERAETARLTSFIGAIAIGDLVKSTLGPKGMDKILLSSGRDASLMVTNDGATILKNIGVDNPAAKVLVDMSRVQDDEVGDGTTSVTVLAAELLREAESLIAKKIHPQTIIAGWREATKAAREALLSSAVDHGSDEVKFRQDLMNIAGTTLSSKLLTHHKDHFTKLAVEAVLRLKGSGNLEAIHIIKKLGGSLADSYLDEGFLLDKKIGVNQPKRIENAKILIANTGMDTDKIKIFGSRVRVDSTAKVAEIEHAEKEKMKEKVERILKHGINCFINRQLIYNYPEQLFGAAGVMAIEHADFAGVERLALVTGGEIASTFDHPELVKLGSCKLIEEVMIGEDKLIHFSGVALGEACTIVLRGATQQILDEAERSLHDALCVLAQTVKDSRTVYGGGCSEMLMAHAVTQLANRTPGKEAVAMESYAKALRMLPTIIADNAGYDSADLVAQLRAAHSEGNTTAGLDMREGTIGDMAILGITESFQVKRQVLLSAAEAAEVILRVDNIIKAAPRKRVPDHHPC
UniProt P62633: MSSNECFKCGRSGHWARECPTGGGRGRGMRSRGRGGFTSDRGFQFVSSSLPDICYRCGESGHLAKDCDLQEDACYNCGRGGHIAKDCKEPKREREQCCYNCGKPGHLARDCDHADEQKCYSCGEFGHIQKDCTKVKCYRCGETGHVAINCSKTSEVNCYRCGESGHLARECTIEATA
UniProt Q00839, whole entry, looked up: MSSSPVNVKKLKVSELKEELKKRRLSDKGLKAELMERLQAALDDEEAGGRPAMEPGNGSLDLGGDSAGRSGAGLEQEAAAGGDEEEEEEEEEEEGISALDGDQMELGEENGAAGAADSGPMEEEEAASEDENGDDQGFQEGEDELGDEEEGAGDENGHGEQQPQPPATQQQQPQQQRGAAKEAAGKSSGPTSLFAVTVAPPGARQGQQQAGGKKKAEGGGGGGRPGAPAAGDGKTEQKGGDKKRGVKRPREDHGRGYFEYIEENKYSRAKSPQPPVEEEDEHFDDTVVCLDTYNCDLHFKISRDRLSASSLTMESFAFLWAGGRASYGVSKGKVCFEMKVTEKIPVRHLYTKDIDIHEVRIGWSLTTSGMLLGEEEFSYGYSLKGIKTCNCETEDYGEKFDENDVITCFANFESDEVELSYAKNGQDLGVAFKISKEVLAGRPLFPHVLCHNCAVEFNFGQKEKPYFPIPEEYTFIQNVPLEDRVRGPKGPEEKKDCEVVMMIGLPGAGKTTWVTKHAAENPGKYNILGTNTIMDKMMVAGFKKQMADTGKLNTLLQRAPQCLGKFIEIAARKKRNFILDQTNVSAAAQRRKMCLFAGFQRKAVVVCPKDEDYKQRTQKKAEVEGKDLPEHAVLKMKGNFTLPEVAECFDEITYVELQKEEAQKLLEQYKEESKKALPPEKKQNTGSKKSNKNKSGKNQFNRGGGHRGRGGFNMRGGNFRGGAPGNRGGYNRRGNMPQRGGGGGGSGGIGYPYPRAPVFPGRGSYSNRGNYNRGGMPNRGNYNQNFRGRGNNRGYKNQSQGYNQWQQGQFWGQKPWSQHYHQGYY
UniProt Q00796: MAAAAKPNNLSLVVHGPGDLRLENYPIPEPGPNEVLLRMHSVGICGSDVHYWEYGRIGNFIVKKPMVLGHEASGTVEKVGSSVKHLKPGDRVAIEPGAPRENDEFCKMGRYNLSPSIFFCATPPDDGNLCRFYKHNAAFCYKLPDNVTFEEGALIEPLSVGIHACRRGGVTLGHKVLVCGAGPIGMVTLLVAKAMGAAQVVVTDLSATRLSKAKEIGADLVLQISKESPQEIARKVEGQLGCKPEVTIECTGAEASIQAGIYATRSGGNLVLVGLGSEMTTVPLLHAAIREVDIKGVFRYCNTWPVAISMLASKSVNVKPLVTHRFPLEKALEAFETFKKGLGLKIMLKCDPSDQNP
UniProt P78417: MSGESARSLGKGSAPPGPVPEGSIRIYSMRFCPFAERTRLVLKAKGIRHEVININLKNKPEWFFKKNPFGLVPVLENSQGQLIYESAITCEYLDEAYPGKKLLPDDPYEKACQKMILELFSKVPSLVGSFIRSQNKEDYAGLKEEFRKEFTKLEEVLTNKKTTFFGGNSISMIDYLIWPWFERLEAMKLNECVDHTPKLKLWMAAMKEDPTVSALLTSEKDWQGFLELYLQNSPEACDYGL
UniProt Q00577: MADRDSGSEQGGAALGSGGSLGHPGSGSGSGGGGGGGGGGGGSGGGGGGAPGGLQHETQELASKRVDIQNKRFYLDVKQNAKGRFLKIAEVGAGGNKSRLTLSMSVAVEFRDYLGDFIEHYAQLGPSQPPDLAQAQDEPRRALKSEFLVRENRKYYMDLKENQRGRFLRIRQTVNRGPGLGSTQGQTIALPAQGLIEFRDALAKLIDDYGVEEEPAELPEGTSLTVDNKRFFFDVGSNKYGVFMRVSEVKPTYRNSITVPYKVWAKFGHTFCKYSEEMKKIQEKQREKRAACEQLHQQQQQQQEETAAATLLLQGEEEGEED
UniProt Q00169: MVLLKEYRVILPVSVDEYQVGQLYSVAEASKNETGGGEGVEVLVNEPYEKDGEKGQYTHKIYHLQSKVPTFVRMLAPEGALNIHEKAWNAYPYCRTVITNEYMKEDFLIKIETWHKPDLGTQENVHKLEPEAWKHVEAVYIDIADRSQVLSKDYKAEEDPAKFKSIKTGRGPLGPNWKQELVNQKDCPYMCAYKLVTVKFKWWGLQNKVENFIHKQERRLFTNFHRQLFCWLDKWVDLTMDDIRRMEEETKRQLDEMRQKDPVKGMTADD
UniProt P83916, whole entry, looked up: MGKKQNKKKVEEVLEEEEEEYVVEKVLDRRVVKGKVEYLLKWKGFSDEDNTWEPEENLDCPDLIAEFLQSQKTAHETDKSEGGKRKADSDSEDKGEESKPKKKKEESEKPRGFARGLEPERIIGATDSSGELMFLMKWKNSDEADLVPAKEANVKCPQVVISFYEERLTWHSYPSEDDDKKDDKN
UniProt P67775, whole entry, looked up: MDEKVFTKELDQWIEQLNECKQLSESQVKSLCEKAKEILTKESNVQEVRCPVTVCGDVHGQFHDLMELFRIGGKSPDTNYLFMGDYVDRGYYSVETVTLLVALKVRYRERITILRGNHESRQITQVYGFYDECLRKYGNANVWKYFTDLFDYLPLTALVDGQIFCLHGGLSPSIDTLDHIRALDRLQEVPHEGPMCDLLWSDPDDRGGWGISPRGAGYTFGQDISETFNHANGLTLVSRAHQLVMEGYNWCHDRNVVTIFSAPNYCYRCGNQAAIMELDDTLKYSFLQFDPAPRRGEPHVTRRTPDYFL
UniProt Q01581: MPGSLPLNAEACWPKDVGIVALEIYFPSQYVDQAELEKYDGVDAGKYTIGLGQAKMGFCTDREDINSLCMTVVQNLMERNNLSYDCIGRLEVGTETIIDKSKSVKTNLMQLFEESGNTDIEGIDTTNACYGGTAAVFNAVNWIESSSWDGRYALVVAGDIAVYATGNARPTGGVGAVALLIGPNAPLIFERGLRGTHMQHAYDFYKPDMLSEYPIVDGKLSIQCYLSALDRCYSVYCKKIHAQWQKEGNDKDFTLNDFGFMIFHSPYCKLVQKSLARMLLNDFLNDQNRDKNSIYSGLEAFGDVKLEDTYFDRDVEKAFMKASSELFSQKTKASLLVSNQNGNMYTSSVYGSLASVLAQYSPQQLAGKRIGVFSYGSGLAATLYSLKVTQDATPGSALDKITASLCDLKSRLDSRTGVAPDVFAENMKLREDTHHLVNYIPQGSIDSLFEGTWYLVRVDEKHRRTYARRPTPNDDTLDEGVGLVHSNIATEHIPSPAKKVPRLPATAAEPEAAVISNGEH
UniProt P68104, whole entry, looked up: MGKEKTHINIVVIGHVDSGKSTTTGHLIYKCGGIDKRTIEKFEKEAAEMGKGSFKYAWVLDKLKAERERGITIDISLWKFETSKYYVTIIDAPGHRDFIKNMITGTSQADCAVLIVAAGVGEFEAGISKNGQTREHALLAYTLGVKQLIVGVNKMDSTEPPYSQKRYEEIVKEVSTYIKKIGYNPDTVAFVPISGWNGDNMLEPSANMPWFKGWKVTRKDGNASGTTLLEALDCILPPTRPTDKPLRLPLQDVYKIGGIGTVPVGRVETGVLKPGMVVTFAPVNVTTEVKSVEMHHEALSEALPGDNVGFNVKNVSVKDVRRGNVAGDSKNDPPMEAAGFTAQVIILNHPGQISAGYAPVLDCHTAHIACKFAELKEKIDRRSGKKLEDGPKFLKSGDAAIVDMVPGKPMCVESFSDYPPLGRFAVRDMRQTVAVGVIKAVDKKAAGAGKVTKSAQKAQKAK
UniProt P62995: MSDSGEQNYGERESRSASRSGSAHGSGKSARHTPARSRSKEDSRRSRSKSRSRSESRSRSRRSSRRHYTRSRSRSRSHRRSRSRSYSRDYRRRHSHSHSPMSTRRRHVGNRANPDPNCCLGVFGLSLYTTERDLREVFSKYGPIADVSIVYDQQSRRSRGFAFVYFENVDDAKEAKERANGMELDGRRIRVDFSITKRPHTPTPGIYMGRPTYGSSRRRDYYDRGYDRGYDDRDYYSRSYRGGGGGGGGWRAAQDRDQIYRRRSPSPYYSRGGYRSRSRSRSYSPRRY
UniProt Q00688: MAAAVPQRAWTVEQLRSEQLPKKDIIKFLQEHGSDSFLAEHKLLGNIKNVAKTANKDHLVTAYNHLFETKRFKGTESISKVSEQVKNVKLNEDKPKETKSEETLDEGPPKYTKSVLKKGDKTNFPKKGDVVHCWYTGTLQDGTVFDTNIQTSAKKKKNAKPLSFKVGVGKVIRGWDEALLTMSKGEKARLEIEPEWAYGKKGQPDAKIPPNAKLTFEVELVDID

Only a part is listed here, and it is no random draw.

Compound in this assay: COC(=O)C#Cc1ccccc1 [methyl 3-phenylpropiolate]
The assay is described as follows: log2 ratio of iodoacetamide-alkyne labeling of the cysteine site, DMSO over compound (competition); higher = stronger covalent engagement of the cysteine by the compound, active = 1 or more. Conditions: 500 µM; treatment time 1 h; system: HEK293T cell lysate. In short, it runs like this: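 HEK293T lysate at 2 mg/mL was treated with vehicle or electrophile (500 µM) for 1 h at ambient temperature, then labelled with iodoacetamide alkyne (1 h), clicked to sCIP-TMT reagents, pooled, digested with trypsin overnight at 37 °C, enriched on streptavidin and eluted with acid. Peptides were analysed by Orbitrap Eclipse LC-MS/MS with FAIMS and quantified in FragPipe, using duplicate channels and three replicates, with cysteines quantified in only one replicate excluded. The log2 competition ratio for each cysteine is the mean control-channel reporter intensity divided by the mean compound-channel reporter intensity.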
Turning to UniProt P78527_C2469, the “log2 ratio of iodoacetamide-alkyne labeling” value (shortened to “log2 ratio”) was inactive: 0.51.

Turning to UniProt P62318_C20, the “log2 ratio” value was inactive: 0.0377.

PFKP C123 (UniProt Q01813): the “log2 ratio” value is inactive: -0.112. Take UniProt P68363_C129: the “log2 ratio” value was inactive: 0.276. Next, CCT2 C395 (UniProt P78371): inactive: -0.0576; CNBP C171 (UniProt P62633): inactive: -0.0616. For HNRNPU C648 (UniProt Q00839) the value was inactive: 0.201; for RPL18A C137 (UniProt Q02543), inactive: 0.487. Turning to SORD C45 (UniProt Q00796), the “log2 ratio” value is inactive: -0.0713. For GSTO1 C32 (UniProt P78417) the value was active: 2.51; for PURA C272 (UniProt Q00577), inactive: 0.234; for PITPNA C230 (UniProt Q00169), inactive: 0.182.

Turning to UniProt P63244_C182, the “log2 ratio” value was inactive: 0.268. For the target UniProt P83916_C156, the “log2 ratio” value is inactive: 0.0703. For PPP2CA C269 (UniProt P67775) the value was inactive: -0.168.

As to HNRNPU C389 (UniProt Q00839), the “log2 ratio” value is inactive: 0.378.

For UniProt P62701_C124, the “log2 ratio” value was inactive: -0.122. For MRPS34 C93 (UniProt P82930) the value was inactive: 0.136; for UniProt P78527_C3347, inactive: 0.495.

As to HMGCS1 C224 (UniProt Q01581), the “log2 ratio” value is inactive: -0.00391.

As to EEF1A1 C411 (UniProt P68104), the “log2 ratio” value is inactive: 0.726.

Take UniProt P62995_C118: the “log2 ratio” value is inactive: -0.0473. Next, FKBP3 C133 (UniProt Q00688): inactive: 0.158.
